For five molecules, binding results are on record in article PMC2634961.

Sequences of proteins named here, by UniProt entry; tags and fusion partners are left off.
UniProt Q6P5F9: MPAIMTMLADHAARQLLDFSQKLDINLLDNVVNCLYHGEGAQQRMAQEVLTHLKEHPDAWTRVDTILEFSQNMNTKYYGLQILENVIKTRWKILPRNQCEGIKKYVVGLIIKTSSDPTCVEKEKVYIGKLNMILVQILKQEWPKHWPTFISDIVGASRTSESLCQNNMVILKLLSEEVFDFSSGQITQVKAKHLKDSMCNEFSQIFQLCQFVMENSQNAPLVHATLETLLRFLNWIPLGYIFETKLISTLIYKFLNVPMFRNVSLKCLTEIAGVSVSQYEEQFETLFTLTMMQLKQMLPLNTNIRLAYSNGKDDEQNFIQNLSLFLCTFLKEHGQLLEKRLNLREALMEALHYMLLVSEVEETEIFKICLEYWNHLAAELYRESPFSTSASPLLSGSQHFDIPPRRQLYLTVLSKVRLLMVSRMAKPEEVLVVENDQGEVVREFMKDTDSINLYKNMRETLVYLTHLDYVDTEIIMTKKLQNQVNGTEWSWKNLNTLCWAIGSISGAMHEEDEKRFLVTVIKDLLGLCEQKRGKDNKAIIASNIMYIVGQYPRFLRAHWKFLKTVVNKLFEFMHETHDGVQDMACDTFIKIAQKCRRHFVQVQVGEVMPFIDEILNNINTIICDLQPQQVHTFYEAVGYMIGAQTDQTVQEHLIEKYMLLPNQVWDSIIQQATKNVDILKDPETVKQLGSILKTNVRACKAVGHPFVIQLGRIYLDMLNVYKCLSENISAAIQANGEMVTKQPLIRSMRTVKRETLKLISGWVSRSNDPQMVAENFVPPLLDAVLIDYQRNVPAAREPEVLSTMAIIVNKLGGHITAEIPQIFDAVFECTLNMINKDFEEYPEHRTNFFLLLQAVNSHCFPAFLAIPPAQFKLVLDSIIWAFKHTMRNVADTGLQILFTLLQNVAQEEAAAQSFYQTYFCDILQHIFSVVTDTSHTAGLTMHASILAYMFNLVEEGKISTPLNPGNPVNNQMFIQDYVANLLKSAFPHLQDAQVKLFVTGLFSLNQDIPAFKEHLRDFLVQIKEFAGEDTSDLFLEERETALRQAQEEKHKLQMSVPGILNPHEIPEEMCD
UniProt P70168: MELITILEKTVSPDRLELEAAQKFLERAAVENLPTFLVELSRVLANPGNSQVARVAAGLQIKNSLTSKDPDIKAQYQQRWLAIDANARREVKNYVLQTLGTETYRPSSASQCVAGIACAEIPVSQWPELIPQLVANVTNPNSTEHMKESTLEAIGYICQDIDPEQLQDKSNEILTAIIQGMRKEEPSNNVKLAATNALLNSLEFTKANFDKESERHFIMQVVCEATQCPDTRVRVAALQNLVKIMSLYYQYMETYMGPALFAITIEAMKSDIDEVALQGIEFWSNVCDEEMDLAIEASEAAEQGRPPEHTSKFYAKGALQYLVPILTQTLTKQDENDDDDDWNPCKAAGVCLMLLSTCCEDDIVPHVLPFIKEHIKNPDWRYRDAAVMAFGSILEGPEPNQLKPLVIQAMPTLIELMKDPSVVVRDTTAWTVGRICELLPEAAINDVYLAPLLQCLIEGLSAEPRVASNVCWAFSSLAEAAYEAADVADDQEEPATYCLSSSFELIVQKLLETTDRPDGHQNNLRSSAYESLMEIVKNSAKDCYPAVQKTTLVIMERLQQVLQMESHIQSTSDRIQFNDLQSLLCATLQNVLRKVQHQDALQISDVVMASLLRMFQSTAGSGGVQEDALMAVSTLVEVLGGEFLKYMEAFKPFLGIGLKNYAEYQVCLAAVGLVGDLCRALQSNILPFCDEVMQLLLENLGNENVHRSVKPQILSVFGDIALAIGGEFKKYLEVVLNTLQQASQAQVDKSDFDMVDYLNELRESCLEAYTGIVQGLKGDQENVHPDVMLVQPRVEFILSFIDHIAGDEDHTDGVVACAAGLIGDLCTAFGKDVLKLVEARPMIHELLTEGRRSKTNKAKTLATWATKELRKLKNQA

In assay [1] the target is T1, endogenous HDAC3 (mouse (endogenous in P19)) (UniProt O88895).
T1 sequence: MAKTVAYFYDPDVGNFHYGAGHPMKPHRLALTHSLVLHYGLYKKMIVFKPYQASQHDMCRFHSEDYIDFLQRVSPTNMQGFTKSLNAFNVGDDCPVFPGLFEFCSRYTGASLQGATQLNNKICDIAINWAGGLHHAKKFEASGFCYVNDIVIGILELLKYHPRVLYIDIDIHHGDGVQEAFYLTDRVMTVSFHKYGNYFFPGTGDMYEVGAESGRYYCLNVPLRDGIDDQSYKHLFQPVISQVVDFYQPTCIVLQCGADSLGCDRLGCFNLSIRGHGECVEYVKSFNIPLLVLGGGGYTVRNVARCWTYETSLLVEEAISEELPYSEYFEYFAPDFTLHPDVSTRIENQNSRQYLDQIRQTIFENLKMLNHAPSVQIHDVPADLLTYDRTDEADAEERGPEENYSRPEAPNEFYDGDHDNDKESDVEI
In words: co-IP; endogenous proteins of P19 cells; cells untreated or treated with atRA (0.1 μM, 6 h or a time course of 0-48 h), ERK activator S-1-P, TSA, siRNA to TR2 or ERK2, expression of WT or Ser-424→Ala HDAC3; whole lysates or nuclear and cytoplasmic fractions.

Assay [2] concerns the target T2, TR2 full-length wild type (GAL4 two-hybrid construct) (mouse), Q505F1.
T2 chain: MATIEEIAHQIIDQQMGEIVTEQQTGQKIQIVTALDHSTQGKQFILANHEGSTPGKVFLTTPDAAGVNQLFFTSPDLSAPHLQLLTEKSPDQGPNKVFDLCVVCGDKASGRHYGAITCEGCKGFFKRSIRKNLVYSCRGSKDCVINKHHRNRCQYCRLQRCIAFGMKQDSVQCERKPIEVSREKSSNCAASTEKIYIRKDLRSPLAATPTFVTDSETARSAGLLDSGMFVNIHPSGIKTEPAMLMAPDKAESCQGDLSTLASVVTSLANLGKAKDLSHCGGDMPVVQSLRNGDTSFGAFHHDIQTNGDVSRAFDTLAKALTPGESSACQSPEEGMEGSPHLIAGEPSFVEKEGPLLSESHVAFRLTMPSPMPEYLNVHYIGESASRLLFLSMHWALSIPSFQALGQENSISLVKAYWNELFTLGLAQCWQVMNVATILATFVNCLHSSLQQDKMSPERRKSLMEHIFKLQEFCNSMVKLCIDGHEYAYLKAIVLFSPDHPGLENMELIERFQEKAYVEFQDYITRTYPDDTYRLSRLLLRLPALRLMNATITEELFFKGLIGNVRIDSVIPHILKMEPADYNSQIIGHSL
Put plainly: two-hybrid; mammalian version of the two-hybrid system in COS-1 cells, GAL4 tk-luciferase reporter. Conditions: remark: other sources report otherwise. Background: Reporter assays use an easily measured gene product as a stand-in for the process of interest.

In assay [3] the target is T3, endogenous TR2 (mouse (endogenous in P19)), Q505F1.
T3 chain: T2 chain
Put plainly: co-IP; endogenous proteins of P19 cells treated with the ERK2 inhibitor AMTZD (25 μM, 6 h), with or without atRA. Conditions: remark: other sources report otherwise.

Assay [4] deals with T4, FLAG-tagged WT TR2 (mouse), Q505F1.
T4 chain: T2 chain
In words: co-IP; P19 cells transiently transfected (0.5 μg/ml, 16 h) with FLAG-tagged TR2 constructs; association with endogenous HDAC3 and PML. Conditions: remark: other sources report otherwise.

In assay [5] the target is T3, endogenous TR2 (mouse (endogenous in …)). Put plainly: co-IP; endogenous proteins of P19 cells; cells untreated or treated with atRA (0.1 μM, 6 h or a time course of 0-48 h), ERK activator S-1-P, TSA, siRNA to TR2 or ERK2, expression of WT or Ser-424→Ala HDAC3; whole lysates or nuclear and cytoplasmic fractions. As to conditions: remark: other sources report otherwise.

The target of assay [6] is T5, GST–TR2 WT (mouse), Q505F1.
T5 chain: T2 chain
Put plainly: pull-down; GST pull-down: recombinant GST–TR2 purified from E. coli incubated with 35S-labeled in vitro-transcribed and translated protein; SDS–PAGE and autoradiography; only the target purified. Conditions: remark: other sources report otherwise.

These are yes or no findings as the source states them, for the method shown. For some of these results: In cells and extracts the contact can be indirect. Some results given as binding are weak or reduced against the parent protein; the word gives no strength. For some of these results: Tags and fused reporters may be left off the sequences shown.

For “exportin 1 (CRM1) (from UniProt Q6P5F9 1-1071)”, in assay [1], the binding result is given as “binds”.

For “importin-β1 (karyopherin β1) (from UniProt P70168 1-876)”, the binding result in assay [1] is on record as “binds”.

B1: HDAC3 (mammalian two-hybrid construct), O88895 1-428 (protein)
chain: T1 sequence
Regarding B1, the binding entry in assay [2] is on record as “binds”.

B2: endogenous HDAC3, O88895 1-428 (protein)
chain: T1 sequence
As to B2, the binding entry in assay [3], in assay [4] and in assay [5] was “binds” throughout.

B3: 35S-labeled in vitro-transcribed and translated PML, Q60953 1-885 (protein)
chain: METEPVSVQKVPAPPGSPCRQQDSALTPTPTMPPPEEPSEDYEHSQSPAEQAIQEEFQFLRCPSCQAQAKCPKLLPCLHTLCSGCLEAPGLQCPICKAPGQADANGEALDNVFFESLQRRLAVFRQIVDAQAACTRCKGLADFWCFECEQLICSKCFEAHQWYLKHEARPLADLRDNSVSSFLDSTRKSNIFCSNTNHRNPALTDIYCRGCAKPLCCTCALLDRNHSHLHCDIGEEIQQWHEELGTMTQTLEEQGRTFDSAHAQMCSAIGQLDHARADIEKQIRARVRQVVDYVQAQERELLEAVNDRYQRDYQEIAGQLSCLEAVLQRIRTSGALVKRMKLYASDQEVLDMHSFLRKALCSLRQEEPQNQKVQLLTRGFEEFKLCLQDFISCITQRINAAVASPEAASNQPEAASTHPVTTSTPEDLEQPKEVQSVQAQALELSKTQPVAMVKTVPGAHPVPVYAFSMQGPTYREEASQTVGSMKRKCSHEDCSRKIIKMESTEENEDRLATSSPEQSWPSTFKATSPPHLDGTSNPESTVPEKKILLPNNNHVTSDTGETEERVVVISSSEDSDTENLSSHELDDSSSESSSLQLEGPNSLKALDESLAEPHLEDRTLVFFDLKIDNETQKISQLAAVNRESKFRVLIQPEAFSVYSKAVSLEAGLRHFLSFLTTMHRPILACSRLWGPGLPIFFQTLSDINKLWEFQDTISGFLAVLPLIRERIPGASSFKLGNLAKTYLARNMSERSALASVLAMRDLCCLLEISPGLPLAQHIYSFSSLQCFASLQPLIQASVLPQSEARLLALHNVSFVELLNAYRTNRQEGLKKYVHYLSLQTTPLSSSASTQVAQFLQALSTHMEGLLEGHAPAGAEGKAESKGCLA
modifications: here or on the partner: 35S-labeled
On to B3, for which, in assay [6], the binding result is listed as “no binding”.
